Results deposited as PubChem BioAssay AID1224828 (NIAID, 2016)

Assay: 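Find genes required for NF-kappaB p65 moving into the nucleus after LPS in mouse macrophages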 (primary screen)
Cells: mouse RAW264.7 G9 macrophage reporter cells (GFP-p65, Tnf promoter-mCherry)
Reagents: siRNA pool against mouse genes, 100 nM
Timing: 2 days siRNA transfection, then 40 min LPS before fixation
Treatment: LPS (Salmonella minnesota R595) at 10 ng/ml
Detection: 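Microscopy ratio of nuclear to perinuclear-ring GFP-p65 signal, scaled to the plate median; gene score is the average of two replicate robust z-scores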
Reading the numbers: p65 translocation robust z-score: higher = more nuclear NF-kappaB p65 after LPS than the plate median; nuclear/cytoplasmic p65 ratio: higher = more nuclear NF-kappaB p65
Hit rule: 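Called active when z exceeds 3.3 or falls under -1.56 (median of Tlr4 controls), giving activity score of at least 50; no calls for control wells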
Calls: active = hit (p65 shift raised or lowered); inactive = no clear change
The whole screen tested about 17,000 reagents; this is an unselected part. 762 of all reagents (4.5%) were called active. 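Active calls include both raised and lowered p65 entry, mostly lowered; wells with fewer than 50 cells lack a z-score.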 Raw values vary from plate to plate and are shown uncorrected. Entries without a mark were called inactive.

| Gene | p65 translocation robust z-score | nuclear/cytoplasmic p65 ratio, rep 1 | nuclear/cytoplasmic p65 ratio, rep 2 | low cell count flag |
| --- | --- | --- | --- | --- |
| Prph | – | 1.15 | 0.983 | fewer than 50 cells per well; well left out of scoring |
| D630028G08Rik | -0.47 | 1.48 | 1.65 | enough cells to score |
| Tnxb | -0.21 | 1.61 | 1.37 | enough cells to score |
| Klk14 | – | 1.42 | 1.25 | fewer than 50 cells per well; well left out of scoring |
| Chdh | 0.49 | 1.69 | 1.84 | enough cells to score |
| Or10aa1 | 0.54 | 1.61 | 1.25 | enough cells to score |
| Arf5 | 1.26 | 1.74 | 1.74 | enough cells to score |
| Kcnip3 | -0.8 | 1.34 | 1.3 | enough cells to score |
| A130010J15Rik | 1.52 | 1.61 | 1.71 | enough cells to score |
| Cdon | -0.06 | 1.54 | 1.29 | enough cells to score |
| Mmrn1 | -0.09 | 1.43 | 1.33 | enough cells to score |
| Pof1b | -0.82 | 1.34 | 1.06 | enough cells to score |
| Gabra1 | -0.45 | 1.32 | 1.37 | enough cells to score |
| Cd248 | -1.68 (active) | 1.39 | 1.45 | enough cells to score |
| Ccr6 | -1.43 | 1.29 | 1.39 | enough cells to score |
| Irgm1 | 0.35 | 1.57 | 1.51 | enough cells to score |
| Phkg2 | -0.5 | 1.67 | 1.31 | enough cells to score |
| Psip1 | -0.67 | 1.3 | 1.13 | enough cells to score |
| Slc15a2 | 0.54 | 1.56 | 1.24 | enough cells to score |
| Phgdh | 1.33 | 1.66 | 1.6 | enough cells to score |
| Kcnc4 | 0.12 | 1.53 | 1.36 | enough cells to score |
| Zfp277 | – | 1.11 | 1.05 | fewer than 50 cells per well; well left out of scoring |
| Rbm12b1 | – | 1.34 | 1.33 | fewer than 50 cells per well; well left out of scoring |
| Il12rb2 | 1.32 | 1.67 | 1.49 | enough cells to score |
| Kpna2 | -0.96 | 1.3 | 1.3 | enough cells to score |
| Glrb | 0.32 | 1.45 | 1.52 | enough cells to score |
| Sdccag8 | -0.04 | 1.42 | 1.21 | enough cells to score |
| Ints5 | -0.69 | 1.4 | 1.4 | enough cells to score |
| Slc12a5 | 0.18 | 1.39 | 1.31 | enough cells to score |
| Slc6a14 | – | 1.26 | 1.21 | fewer than 50 cells per well; well left out of scoring |
| Dnaja1 | 1.5 | 1.72 | 1.5 | enough cells to score |
| Serpinb6b | 0.14 | 1.32 | 1.27 | enough cells to score |
| Jup | 1.95 | 1.66 | 1.7 | enough cells to score |
| Pir | -0.28 | 1.51 | 1.63 | enough cells to score |
| Nr1i2 | 0.77 | 1.49 | 1.57 | enough cells to score |
| Or4x11 | -1.11 | 1.42 | 1.3 | enough cells to score |
| Spr | 0.64 | 1.64 | 1.64 | enough cells to score |
| Haghl | -1.22 | 1.24 | 1.25 | enough cells to score |
| Ms4a6c | 2.92 | 1.95 | 2.3 | enough cells to score |
| Cyb5rl | -0.52 | 1.21 | 1.2 | enough cells to score |
| Eif2s2 | 0.38 | 1.48 | 1.41 | enough cells to score |
| Klk1b7-ps | – | 1.5 | 1.5 | fewer than 50 cells per well; well left out of scoring |
| Gltp | 0.37 | 1.69 | 1.61 | enough cells to score |
| Or2ag1 | – | 1.54 | 1.29 | fewer than 50 cells per well; well left out of scoring |
| Plgrkt | -1.72 (active) | 1.25 | 1.23 | enough cells to score |
| Cd209c | -2.86 (active) | 1.14 | 1.34 | enough cells to score |

11 consecutive records already listed, quoted:
| Gene | p65 translocation robust z-score | nuclear/cytoplasmic p65 ratio, rep 1 | nuclear/cytoplasmic p65 ratio, rep 2 | low cell count flag |
| --- | --- | --- | --- | --- |
| Ccr6 | -1.43 | 1.29 | 1.39 | enough cells to score |
| Irgm1 | 0.35 | 1.57 | 1.51 | enough cells to score |
| Phkg2 | -0.5 | 1.67 | 1.31 | enough cells to score |
| Psip1 | -0.67 | 1.3 | 1.13 | enough cells to score |
| Slc15a2 | 0.54 | 1.56 | 1.24 | enough cells to score |
| Phgdh | 1.33 | 1.66 | 1.6 | enough cells to score |
| Kcnc4 | 0.12 | 1.53 | 1.36 | enough cells to score |
| Zfp277 | – | 1.11 | 1.05 | fewer than 50 cells per well; well left out of scoring |
| Rbm12b1 | – | 1.34 | 1.33 | fewer than 50 cells per well; well left out of scoring |
| Il12rb2 | 1.32 | 1.67 | 1.49 | enough cells to score |
| Kpna2 | -0.96 | 1.3 | 1.3 | enough cells to score |

The results go on:
| Gene | p65 translocation robust z-score | nuclear/cytoplasmic p65 ratio, rep 1 | nuclear/cytoplasmic p65 ratio, rep 2 | low cell count flag |
| --- | --- | --- | --- | --- |
| Dennd6a | 0.49 | 1.59 | 1.43 | enough cells to score |
| Cd300ld3 | 0.12 | 1.52 | 1.9 | enough cells to score |
| Sntg2 | -1.1 | 1.25 | 1.11 | enough cells to score |
| Smcr8 | -0.27 | 1.39 | 1.26 | enough cells to score |
| Saxo2 | 0.76 | 1.72 | 1.88 | enough cells to score |
| Npas1 | 0.91 | 1.62 | 1.49 | enough cells to score |
| Pacsin1 | 0.78 | 1.89 | 1.41 | enough cells to score |
| Or9g4b | -0.27 | 1.67 | 1.49 | enough cells to score |
| Mphosph6 | 0.32 | 1.42 | 1.44 | enough cells to score |
| Slc35h1 | – | 1.17 | 1.33 | fewer than 50 cells per well; well left out of scoring |
| Ovol2 | -0.12 | 1.43 | 1.21 | enough cells to score |
| Mgat4b | -2.12 (active) | 1.45 | 1.18 | enough cells to score |
| Fbxo11 | -0.32 | 1.31 | 1.32 | enough cells to score |
| Ap3m2 | 0.53 | 1.43 | 1.83 | enough cells to score |
| St6galnac2 | 1.35 | 1.59 | 1.41 | enough cells to score |
| Sh3rf2 | -0.1 | 1.34 | 1.29 | enough cells to score |
| Tomm22 | -0.3 | 1.35 | 1.14 | enough cells to score |
| Bak1 | -0.28 | 1.57 | 1.58 | enough cells to score |
| Wdr7 | -0.2 | 1.62 | 1.45 | enough cells to score |
| Trappc2l | – | 1.29 | 1.15 | fewer than 50 cells per well; well left out of scoring |
| Mrps5 | -2.26 (active) | 1.44 | 1.24 | enough cells to score |
| Acy3 | – | 1.38 | 1.57 | fewer than 50 cells per well; well left out of scoring |
| Chmp7 | -1.53 | 1.11 | 1.26 | enough cells to score |
| Yy1 | -1.06 | 1.38 | 1.41 | enough cells to score |
| Inhbc | -0.08 | 1.51 | 1.33 | enough cells to score |
| Or9s27 | 1.1 | 1.79 | 1.55 | enough cells to score |
| Mc2r | -0.08 | 1.46 | 1.61 | enough cells to score |
| Spock2 | 1.09 | 1.6 | 1.33 | enough cells to score |
| Pcdhga6 | 1.37 | 1.61 | 1.42 | enough cells to score |
